In PubChem BioAssay AID1347076 (National Center for Advancing Translational Sciences (NCATS), 2019):
The whole screen tested about 400,000 compounds, of which about 13,000 (3.2%) were called active. Inconclusive means that the source gave no clear call. Such entries were picked first, then a sample of the others. The call rests on the fitted dose curve; in most records, active means well fitted cell-killing curve with a large enough effect; inconclusive means small, poorly fitted or top-dose-only effect, or effect the other way; inactive means flat fitted curve, though single readings scatter. Where the call is inconclusive, the potency comes from a doubtful curve fit.

Assay: qHTS assay for MDR1-selective chemotherapeutics: Primary screen using the drug-selected MDR subline cells KB-V1; further: nearly all actives have a fitted effect of over 60% in size
Conditions: KB-V1 MDR cells viability, CellTiter-Glo, 72 h; activity change, negative = cytotoxicity: at 46.1 µM (top of the series)
Summary of the method: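 Drug-selected KB-V1 cells, grown in DMEM lacking phenol red with 10% FBS, receive compound titrations; after three days at 37 degrees C, surviving cell ATP is quantified by CellTiter-Glo luminescence and responses normalized and curve-fitted.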
On the % scale 0 is the no-effect control and ±100 the full control effect; potency means the concentration at half of the fitted maximal effect.

SMILES | Potency | activity change, negative = cytotoxicity
Cc1ccc(C)c(NC(=O)CN(C)C(=O)c2ccccc2Cc2ccccc2)c1 | inconclusive: 9.2 µM [cytotoxic, partial curve] | 
CCC(C)[C@H]1COCCS(=O)(=O)N1Cc1ccccc1 (some centres not stated) | inactive | 
O=C(c1ccc(N2CCCCC2)c([N+](=O)[O-])c1)N1CCOCC1 | inconclusive: 13 µM [cytotoxic, partial curve] | 
COc1ccc(N2CCN(CC(=O)c3ccc(Cl)cc3)CC2)cc1 | inconclusive: 29.1 µM [rising, single point] | 
CCC(C)Cn1c(/C=C/c2ccccc2)nc2ccccc21 (configuration not stated) | inconclusive: 0.58 µM [rising, full curve] | 
O=C(Oc1ccc(OC(=O)c2ccco2)c(S(=O)(=O)c2ccc(Br)cc2)c1)c1ccco1 | inconclusive: 20.6 µM [cytotoxic, partial curve, poor fit] | 
CC(=O)Nc1ccc(S(=O)(=O)O)c(OC(C)=O)c1 | inactive | 
CCOc1ccc(/C(O)=C2/C(=O)C(=O)N(CCN(CC)CC)C2c2ccco2)cc1 (configuration not stated) | inconclusive: 16.4 µM [rising, single point] | 
O=C(NCC1CCCO1)/C(=C/c1cn(-c2ccccc2)nc1-c1cccnc1)NC(=O)c1ccccc1 (configuration not stated) | inactive | 
C=C1CCC2C(C)(C)[C@@H](O)CC[C@@]2(C)[C@@H]1COc1ccc2ccc(=O)oc2c1 (some centres not stated) | inconclusive: 14.6 µM [cytotoxic, partial curve] | 
CC(CN1CCCCC1)OC(=O)C(C)(c1ccccc1)c1ccccc1 (configuration not stated) | inconclusive: 29.1 µM [cytotoxic, single point] | 
CCCCOC(=O)/C=C/c1c(C)[nH]c(=O)[nH]c1=O | inconclusive: 7.31 µM [cytotoxic, partial curve] | 
Cc1c[n+](CC(=O)c2ccccc2)cs1 | inactive | 
CCCCc1nc2cc(Cl)ccc2o1 | inconclusive: 0.58 µM [rising, partial curve, poor fit] | 
C[C@H](CO)N1C[C@H](C)[C@@H](CN(C)C(=O)Nc2ccc3c(c2)OCO3)Oc2c(NS(=O)(=O)c3ccccc3)cccc2C1=O | inconclusive: 18.4 µM [cytotoxic, partial curve] | 
Cc1cc(C)cc(NC(=O)c2ccc3c(c2)nnn3C2CCCC2)c1 | inconclusive: 5.17 µM [cytotoxic, full curve] | 
O=C(Nn1cnnc1)c1ccccc1F | inconclusive: 29.1 µM [rising, single point] | 
CCN(CC(=O)Nc1c(F)cccc1F)C(=O)CSCC(=O)Nc1cccc(C)c1 | inactive | 
CCCCC(=O)Nc1ccc(NC(=O)c2cnccn2)cn1 | inconclusive: 29.1 µM [rising, single point] | 
Cc1ccc(NC(=O)C(Nc2ccccc2)c2ccccc2)cc1 (configuration not stated) | inactive | 
CCOC(=O)c1cccc(NC(=O)c2cc3c(=O)n(C)c4ccccc4c3n2C)c1 | inactive | 
Cn1c(=O)c2nc(SCc3ccccc3)n(C)c2n(C)c1=O |  | inconclusive: -54.1%
CCc1nnc2c(Nc3cccc(F)c3)nc3ccc(C(=O)c4ccccc4)cc3n12 | active: 9.2 µM | 
O=C(Nc1ccon1)c1ccc(OC2CCCC2)cc1 | active: 18.4 µM | 

Some of these compounds in order of number of heavy atoms, smallest number first.
SMILES | Potency | activity change, negative = cytotoxicity
CCC(C)[C@H]1COCCS(=O)(=O)N1Cc1ccccc1 (some centres not stated) | inactive | 
CCc1nnc2c(Nc3cccc(F)c3)nc3ccc(C(=O)c4ccccc4)cc3n12 | active: 9.2 µM | 
C[C@H](CO)N1C[C@H](C)[C@@H](CN(C)C(=O)Nc2ccc3c(c2)OCO3)Oc2c(NS(=O)(=O)c3ccccc3)cccc2C1=O | inconclusive: 18.4 µM [cytotoxic, partial curve] | 

(next part)

SMILES | Potency | activity change, negative = cytotoxicity
O=C(CCCN1C(=O)c2cccnc2Oc2ccc(Cl)cc21)NCc1ccccc1F | inactive | 
COc1ccc(Nc2nc(C)nc3c2oc2ccccc23)c(OC)c1 | inactive | 
CCN(CC)c1ccc(/C=C2\CCC(/C=C(/C#N)C(=O)Nc3ccccc3F)=C2N2CCOCC2)cc1 | inactive | 
Cc1ccc(N(Cc2ccccc2)C(=O)c2ccc(F)c(S(=O)(=O)N3CCOCC3)c2)cc1 | active: 3.66 µM | 
COc1ccc(NC(=O)CN(C)C(=O)C2CC(=O)N(c3cccc4ccccc34)C2)cc1 (configuration not stated) | inconclusive: 29.1 µM [rising, single point] | 
Cc1ccc(NC2=C(CC(=O)O)C(c3ccc(F)cc3)N(c3ccc(C)cc3)C2=O)cc1 (configuration not stated) | inactive | 
CCn1c(SCC(=O)NCc2cccs2)nnc1-c1cccs1 | inconclusive: 13 µM [cytotoxic, partial curve] | 
CCn1c(SCC(=O)Nc2ccc(C)cc2)nc2nc3c(cc2c1=O)CCCC3 | active: 0.651 µM | 
COc1ccc(NS(=O)(=O)c2cc(NC(=O)c3ccc(F)cc3)ccc2OC)cc1 | inconclusive: 6.51 µM [cytotoxic, partial curve] | 
COc1ccccc1CNc1ncnc2sccc12 | active: 5.17 µM | 
CCc1ccc(-c2cc3c(=O)n(CC(=O)NCCCN4CCN(C)CC4)ncn3n2)cc1 | inactive | 
O=C(NCCCN1CCOCC1)c1ccc2c(=O)n(Cc3cccc(Br)c3)c(=S)[nH]c2c1 | inactive | 
Cc1cccc(NC(=O)CSc2nnnn2-c2ccc3c(c2)OCCO3)n1 | inconclusive: 20.6 µM [cytotoxic, single point] | 
COc1ccc(CCNC(=O)CSc2cn(CCNC(=O)c3cccc(C(F)(F)F)c3)c3ccccc23)cc1OC | inconclusive: 29.1 µM [cytotoxic, single point] | 
CC(=O)c1cccc(OCC(=O)Nc2cccc(C(=O)Nc3c(C)n(C)n(-c4ccccc4)c3=O)c2)c1 | inactive | 
O=C(Nc1cc(C(F)(F)F)ccc1-n1cncn1)c1ccc([N+](=O)[O-])o1 | inconclusive: 29.1 µM [cytotoxic, single point] | 
COc1ccc(NC(=O)c2c(-c3ccccc3)noc2C)c(OC)c1 | inconclusive: 20.6 µM [cytotoxic, single point] | 
Cc1cc(C(F)F)n2nc(C(=O)Nc3ccc(C(C)C)cc3)nc2n1 | inactive | 
Cc1ccc(-n2nnnc2-c2ccccc2)cc1 | inconclusive: 13 µM [cytotoxic, partial curve] | 
Cc1oc(-c2ccccc2Cl)nc1CS(=O)CC(=O)NCc1ccc(Cl)cc1 (configuration not stated) | inactive | 
CC1CC(C)CN(S(=O)(=O)c2ccc(NC(=O)C3CSC4(C)CCC(=O)N34)cc2)C1 (configuration not stated) | inconclusive: 16.4 µM [cytotoxic, partial curve] | 
COc1ccccc1C(=O)NNC(=O)c1cc2ccccc2cc1O | inconclusive: 8.2 µM [cytotoxic, partial curve] | 
Cc1c(Br)c([N+](=O)[O-])nn1CCCC(=O)Nc1sc2c(c1C(N)=O)CCC(C)C2 (configuration not stated) | active: 8.2 µM | 
CCCCc1ccc(Nc2nc(N3CCOCC3)nc(N3CCOCC3)n2)cc1 | inactive | 

SMILES | Potency | activity change, negative = cytotoxicity
Cc1ccccc1-n1c(CSC(=N)N)nc2ccccc2c1=O | inactive | 
Cc1ccc(CCNC(=O)C2CCN(S(=O)(=O)N3CCC4(CC3)OCCO4)CC2)cc1 | inconclusive: 23.1 µM [cytotoxic, partial curve, poor fit] | 
COCCNC(=O)Cn1cnc2c1c(=O)n(C)c(=O)n2C | inconclusive: 20.6 µM [rising, single point] | 
Fc1ccc(NC(=S)N2CCN(C/C=C/c3ccccc3)CC2)c(F)c1 | inconclusive: 32.6 µM [cytotoxic, single point] | 
O=C(NCc1cccnc1)c1cc(C2CCCN(C(=O)c3cccs3)C2)on1 (configuration not stated) | inactive | 
COc1ccc(N2CCN(C(=O)CN3C(=O)NC4(CCCCC4C)C3=O)CC2)cc1 (configuration not stated) | inconclusive: 1.64 µM [rising, full curve, poor fit] | 
COC(=O)[C@@]1(Cc2ccc(F)cc2)[C@H]2c3cc(C(=O)N4CCCC4)n(Cc4cc(F)cc5c4OCOC5)c3C[C@H]2CN1C(=O)c1ccccc1 | inconclusive: 25.9 µM [cytotoxic, single point] | 
CN(c1ccccc1)S(=O)(=O)c1cccc(NC(=O)COc2cccc([N+](=O)[O-])c2)c1 | active: 18.4 µM | 
CN(C)c1ccc(C2CCc3ccccc3N2C(=O)c2ccccc2)cc1 (configuration not stated) | inconclusive: 20.6 µM [cytotoxic, single point] | 
CCCCNC(=O)/C=C/c1ccc(S(=O)(=O)Nc2ccc(OC)cc2)cc1 | inactive | 
Cc1occc1C(=O)N/N=C/c1ccccn1 | inactive | 
Cc1ccc(C(=O)N2CCN(C)CC2)cc1S(=O)(=O)N1CCCCC1 | inconclusive: 11.6 µM [cytotoxic, partial curve] | 
O=C(Nc1ccc(Oc2ccc(S(=O)(=O)N3CCOCC3)cn2)cc1)c1ccco1 | active: 18.4 µM | 
CC1CCc2c(sc(NC(=O)c3cc(-c4cccc(Cl)c4)on3)c2C(N)=O)C1 (configuration not stated) | inactive | 
Cn1c(=O)[nH]c(=O)c2[nH]c(NCCCN3CCOCC3)nc21 | inconclusive: 10.3 µM [rising, partial curve] | 
CCNC(=O)n1nccc1C(C)Oc1ccccc1 (configuration not stated) | inconclusive: 23.1 µM [cytotoxic, partial curve, poor fit] | 
CCCCSc1nc(N)c(C#N)c(-c2cccs2)c1C#N | inconclusive: 18.4 µM [cytotoxic, single point] | 
COc1ccc(C2CC(c3ccc(OC)cc3O)=NN2C(=O)c2ccccc2)cc1 (configuration not stated) | inconclusive: 29.1 µM [cytotoxic, single point] | 
COc1cccc(CNC(=O)Cn2c(=O)n3nc(-c4cccc(F)c4)nc3c3ccccc32)c1 | inactive | 
c1ccc(-c2nc(CSc3nnnn3-c3ccccc3)cs2)cc1 | inconclusive: 20.6 µM [cytotoxic, single point] | 
CCCCN(CCC(=O)O)c1ccc(/C=C/c2ccnc3ccccc23)cc1 | inconclusive: 0.58 µM [cytotoxic, full curve, poor fit] | 
CSc1cccc(NC(=O)CCc2ccccc2)c1 | inactive | 
Cc1oc2c(cc(NS(=O)(=O)c3ccc(C(C)C)cc3)c3ccccc32)c1C(=O)O | inconclusive: 11.6 µM [rising, partial curve, poor fit] | 
COc1ccc(OC)c(NC(=O)CSc2ncnc3c2cnn3-c2ccccc2Cl)c1 | inconclusive: 14.6 µM [cytotoxic, partial curve, poor fit] | 
